Patent US10696634B2, “Pyridine compounds as fungicides” (BASF SE, priority 2015, dated 2020)
Some results were stated once for a whole list of compounds, not compound by compound.

Legend:
Type in all cases: cell-based
Conditions in all cases: 31 ppm active substance; absorption 405 nm 9 days after inoculation; relative to active compound-free control (100%)
[1] = test system: Botrytis cinerea; experiment: Microtiterplate test against grey mold Botrytis cinerea
[2] = test system: Pyricularia oryzae
[3] = test system: Alternaria solani; experiment: Microtiterplate test against early blight caused by Alternaria solani
[4] = test system: Septoria tritici; experiment: Microtiterplate test against leaf blotch on wheat caused by Septoria tritici
[5] = test system: Leptosphaeria nodorum; experiment: Microtiterplate test against wheat leaf spots caused by Leptosphaeria nodorum

Row | SMILES | growth of the pathogen [1] | growth of the pathogen [2] | growth of the pathogen [3] | growth of the pathogen [4] | growth of the pathogen [5]
1 | Cc1cc(Oc2cccc(F)c2C(C)OCc2ccc(F)cc2)cnc1C (stereo not shown) [Example I-10] | at most 19% | at most 6% | at most 17% |  | 
2 | Cc1cc(Oc2cccc(F)c2C(OCc2ccc(F)cc2)C(F)(F)F)cnc1C (stereo not shown) [Example I-30] | at most 19% | at most 6% | at most 17% | at most 19% | at most 20%
3 | Cc1cc(Oc2cccc(F)c2C(C)OCc2ccc(Cl)nc2)cnc1C (stereo not shown) [Example I-23] |  | at most 6% | at most 17% |  | at most 20%
4 | Cc1cc(Oc2cccc(F)c2C(C)OCC(F)(F)F)cnc1C (stereo not shown) [Example I-21] |  | at most 6% | at most 17% |  | 
5 | Cc1cc(Oc2cccc(F)c2C(C)OCc2ccc(Cl)s2)cnc1C (stereo not shown) [Example I-13] | at most 19% | at most 6% | at most 17% |  | 
6 | CCOC(C)(C)c1c(F)cccc1Oc1cnc(C)c(C)c1 [Example I-24] |  | at most 6% | at most 17% |  | at most 20%
7 | Cc1cc(Oc2cccc(F)c2C(C)OCc2ccc(C(F)(F)F)cc2)cnc1C (stereo not shown) [Example I-12] | at most 19% | at most 6% | at most 17% |  | 
8 | Cc1cc(Oc2cccc(F)c2C(C)OCc2csc(-c3ccccc3)n2)cnc1C (stereo not shown) [Example I-20] | at most 19% | at most 6% | at most 17% |  | 
9 | Cc1cc(Oc2cccc(F)c2C(C)(C)OCc2ccc(F)cc2)c(C)nc1C [Example I-37] | at most 19% | at most 6% | at most 17% | at most 19% | at most 20%
10 | Cc1cccc(COC(C)c2c(F)cccc2Oc2cnc(C)c(C)c2)c1 (stereo not shown) [Example I-2] |  | at most 6% | at most 17% |  | 
11 | CCOC(C)c1c(F)cccc1Oc1cnc(C)c(C)c1 (stereo not shown) [Example I-16] |  | at most 6% |  |  | 
12 | Cc1cc(Oc2cccc(F)c2C(C)OCc2ccc(Cl)cc2)cnc1C (stereo not shown) [Example I-11] | at most 19% | at most 6% | at most 17% |  | 
13 | Cc1cc(Oc2cccc(F)c2C(C)OCc2ccc(F)cc2)c(C)nc1C (stereo not shown) [Example I-28] |  | at most 6% | at most 17% |  | at most 20%
14 | Cc1cc(Oc2cccc(F)c2C(C)OCC2CC2)cnc1C (stereo not shown) [Example I-17] | at most 19% | at most 6% | at most 17% |  | at most 20%
15 | Cc1cc(Oc2cccc(F)c2C(C)OC(C)c2ccc(F)cc2)cnc1C (stereo not shown) [Example I-33] |  | at most 6% | at most 17% |  | 
16 | Cc1cc(Oc2cccc(F)c2C(C)OCC=CCl)cnc1C (stereo not shown) [Example I-18] | at most 19% | at most 6% | at most 17% |  | at most 20%
17 | Cc1cc(Oc2cccc(F)c2C(C)OCc2ccc(F)c(F)c2)cnc1C (stereo not shown) [Example I-14] | at most 19% | at most 6% | at most 17% |  | 
18 | CCOC(C)(C)c1c(F)cccc1Oc1cc(C)c(C)nc1C [Example I-36] |  | at most 6% | at most 17% |  | at most 20%
19 | Cc1cc(Oc2cccc(F)c2C(C)OCc2ccccc2)c(C#N)nc1C (stereo not shown) [Example I-8] |  | at most 6% |  |  | 
20 | Cc1cc(Oc2cccc(F)c2C(C)OCc2ccn(-c3ccccc3)n2)cnc1C (stereo not shown) [Example I-27] | at most 19% | at most 6% | at most 17% |  | 
21 | Cc1cc(Oc2cccc(F)c2C(C)OCC(C)(C)C)cnc1C (stereo not shown) [Example I-22] | at most 19% | at most 6% | at most 17% |  | 
22 | COCCCOC(C)c1c(F)cccc1Oc1cnc(C)c(C)c1 (stereo not shown) [Example I-19] |  | at most 6% | at most 17% |  | at most 20%
23 | COc1ccc(COC(C)c2c(F)cccc2Oc2cnc(C)c(C)c2)cc1 (stereo not shown) [Example I-5] | at most 19% | at most 6% | at most 17% |  | 
24 | Cc1cc(Oc2cccc(F)c2C(C)OCc2ccc(F)cc2)c(Cl)nc1C (stereo not shown) [Example I-35] |  | at most 6% | at most 17% |  | 
25 | Cc1cc(Oc2cccc(F)c2C(C)Oc2ccc(F)cc2)cnc1C (stereo not shown) [Example I-15] |  | at most 6% | at most 17% |  | 
26 | Cc1cc(Oc2cccc(F)c2C(C)OCc2ccc(C(C)(C)C)cc2)cnc1C (stereo not shown) [Example I-6] |  | at most 6% | at most 17% |  | 
27 | C#CCOC(C)c1c(F)cccc1Oc1cnc(C)c(C)c1 (stereo not shown) [Example I-7] |  | at most 6% | at most 17% |  | 
